Taken from: PubChem BioAssay AID504804 (Drosophila RNAi Screening Center, 2011)
In all, the deposit lists about 19,000 reagents; shown is a random part of those that have a named target and a result. Of all reagents, 47 (0.25%) are marked active. 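Signals are raw, not normalised; exact z-scores behind calls not deposited; actives needed confirmation, so some wells reaching 2 SD are inactive.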 Reagents against one gene are numbered here. Names joined by + are all predicted targets of the reagent.

Test: 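dsRNAs that improve Kc cell survival under doxorubicin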 (primary screen)
System: Drosophila Kc cells
Knock-down reagent: long dsRNA against Drosophila genes, 0.5 µg dsRNA per well
Timing: 96 h (48 h knock-down, then 48 h drug)
Challenge: doxorubicin 5 µg/ml for 48 h, added 48 h after dsRNA
Measurement: 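Viability measured as cellular ATP by luminescence after 48 h knock-down then 48 h doxorubicin at 5 µg/ml; unnormalised plate counts for each replicate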
Reading the numbers: raw ATP luminescence: higher = more viable cells, protection from doxorubicin
Hit rule: 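Active when both duplicate wells lie at least 2 SD above the plate mean and protection is confirmed by rescreening and independent dsRNAs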

| target gene | dsRNA no. | raw ATP luminescence, replicate 1 | raw ATP luminescence, replicate 2 | call |
| --- | --- | --- | --- | --- |
| CG33474 (GeneID 2768725) | 1 | 74637 | 97457 | inactive |
| Mppe (GeneID 36285) | 1 | 65067 | 47747 | inactive |
| CG5302 (retired record) (GeneID 41898) | 1 | 69150 | 61110 | inactive |
| CG5302 (retired record) (GeneID 41898) | 2 | 76230 | 61450 | inactive |
| fax (GeneID 39826) | 1 | 21297 | 20057 | inactive |
| Osi14 (GeneID 40770) | 1 | 78503 | 52623 | inactive |
| CG34241 (GeneID 5740575) | 1 | 1.94e5 | 1.86e5 | inactive |
| MCPH1 (GeneID 36272) | 1 | 44847 | 40927 | inactive |
| CG8500 (GeneID 41203) | 1 | 45997 | 51897 | inactive |
| L2HGDH (GeneID 35156) | 1 | 1.08e5 | 83163 | inactive |
| RpL3 (GeneID 41347) | 1 | 35093 | 31203 | inactive |
| eIF4EHP (GeneID 326255) | 1 | 2.02e5 | 1.86e5 | inactive |
| eIF4EHP (GeneID 326255) | 2 | 38093 | 43317 | inactive |
| CG14327 (GeneID 42118) | 1 | 68890 | 72420 | inactive |
| Acp26Aa (GeneID 33817) | 1 | 28713 | 39100 | inactive |
| CG15056 (GeneID 32824) | 1 | 3.89e5 | 2.94e5 | inactive |
| Dhx15 (GeneID 35654) | 1 | 59637 | 71157 | inactive |
| CG31910 + snoRNA:Me28S-G2743 (retired record) | 1 | 2.24e5 | 2.97e5 | inactive |
| r-l (GeneID 42493) | 1 | 40447 | 42177 | inactive |
| NdufA3 (GeneID 50405) | 1 | 2.95e5 | 2.70e5 | inactive |
| CG8861 (GeneID 41109) | 1 | 80837 | 59690 | inactive |
| CG8861 (GeneID 41109) | 2 | 41680 | 49993 | inactive |
| CG10916 (GeneID 37081) | 1 | 51480 | 57380 | inactive |
| TwdlW (GeneID 42075) | 1 | 73040 | 72760 | inactive |
| CG15035 (GeneID 31673) | 1 | 46620 | 45350 | inactive |
| CG42382 (GeneID 35938) | 1 | 52673 | 65510 | inactive |
| Or24a (GeneID 33623) | 1 | 28747 | 25897 | inactive |
| Sry-alpha (GeneID 43571) | 1 | 68890 | 68640 | inactive |
| alpha4GT1 (GeneID 33512) | 1 | 1.11e5 | 82283 | inactive |
| CG6567 (GeneID 41304) | 1 | 64547 | 49387 | inactive |
| osk (GeneID 41066) | 1 | 54880 | 28627 | inactive |
| PICK1 (GeneID 34677) | 1 | 79347 | 94240 | inactive |
| mGluR (GeneID 43838) | 1 | 50080 | 56510 | inactive |
| sta (GeneID 31106) | 1 | 34490 | 31810 | inactive |
| osp (GeneID 34850) | 1 | 2.75e5 | 3.11e5 | inactive |
| osp (GeneID 34850) | 2 | 99063 | 69617 | inactive |
| otp (GeneID 37364) | 1 | 41307 | 47167 | inactive |
| otp (GeneID 37364) | 2 | 41957 | 44083 | inactive |
| CG34327 (GeneID 5740714) | 1 | 2.58e5 | 2.65e5 | inactive |
| Orco (GeneID 40650) | 1 | 60850 | 52610 | inactive |
| CG14551 (GeneID 43171) | 1 | 74640 | 64840 | inactive |
| CG42346 (GeneID 3355160) | 1 | 3.06e5 | 2.86e5 | inactive |
| CG42346 (GeneID 3355160) | 2 | 2.46e5 | 2.74e5 | inactive |
| CG42808 + CG42807 | 1 | 50493 | 46867 | inactive |
| slim (GeneID 37121) | 1 | 68757 | 68800 | inactive |
| Ktl (GeneID 42475) | 1 | 34860 | 46870 | inactive |
| Polr1C (GeneID 33712) | 1 | 96557 | 60213 | inactive |
| inaF-B + inaF-D + inaF-C + 1 more | 1 | 3.87e5 | 3.78e5 | inactive |
| CG15256 (GeneID 34911) | 1 | 74727 | 67513 | inactive |
| VhaM9.7-b (GeneID 40389) | 1 | 67490 | 64977 | inactive |
| puf (GeneID 42935) | 1 | 29460 | 28210 | inactive |
| Muc68D (GeneID 39326) | 1 | 45117 | 41933 | inactive |
| LBR (GeneID 37482) | 1 | 32547 | 29507 | inactive |
| Fip1 (GeneID 40569) | 1 | 21563 | 22967 | inactive |
| Indy-2 + CG33934 | 1 | 46153 | 35600 | inactive |
| Indy-2 + CG33934 | 2 | 30760 | 23520 | inactive |
| COX5B (GeneID 33918) | 1 | 19433 | 25260 | inactive |
| CG9312 (GeneID 41686) | 1 | 35083 | 29217 | inactive |
| CG15278 (GeneID 34865) | 1 | 56237 | 50027 | inactive |
| LManV (GeneID 34205) | 1 | 81813 | 56763 | inactive |
| Tango6 (GeneID 35155) | 1 | 98300 | 79553 | inactive |
| CG12448 (GeneID 34942) | 1 | 65600 | 74803 | inactive |
| CG32582 (retired record) (GeneID 318099) | 1 | 2.38e5 | 2.62e5 | inactive |
| CG12231 (GeneID 32942) | 1 | 3.01e5 | 2.93e5 | inactive |
| Cht9 (GeneID 37392) | 1 | 88200 | 52583 | inactive |
| CG5969 (GeneID 40269) | 1 | 29727 | 17507 | inactive |
| Brca2 (GeneID 37916) | 1 | 52977 | 53237 | inactive |
| Brca2 (GeneID 37916) | 2 | 53033 | 58147 | inactive |
| CG8420 (GeneID 41097) | 1 | 65273 | 49230 | inactive |
| CG5391 (GeneID 42611) | 1 | 50860 | 51300 | inactive |
| Ugt35E1 (GeneID 53504) | 1 | 38060 | 52967 | inactive |
| D1 (GeneID 41095) | 1 | 70780 | 26403 | inactive |
| CG14082 (GeneID 40088) | 1 | 62077 | 67993 | inactive |
| raptor (GeneID 31543) | 1 | 49520 | 50450 | inactive |
| CG31633 (GeneID 33931) | 1 | 27400 | 24863 | inactive |
| CG9626 (GeneID 40979) | 1 | 55997 | 29587 | inactive |
| CG13531 (GeneID 37627) | 1 | 58303 | 49943 | inactive |
| CG10132 (GeneID 35239) | 1 | 92293 | 51873 | inactive |
| CG12551 (retired record) (GeneID 35518) | 1 | 63277 | 53327 | inactive |
| CG12551 (retired record) (GeneID 35518) | 2 | 60883 | 48683 | inactive |
| CG18586 (GeneID 38659) | 1 | 77567 | 87377 | inactive |
| CG13748 (GeneID 35896) | 1 | 42763 | 79880 | inactive |
| Tsp42Ee (GeneID 35614) | 1 | 74487 | 60137 | inactive |
| CG10730 (GeneID 35291) | 1 | 57850 | 63673 | inactive |
